From publication PMC12508041
Results are given in words; binding and its absence hold for the method and conditions named. In cells and extracts the contact can be indirect. Some entries that bind do so weakly or less than the wild type.

Chains of the proteins cited; added tags and fusions are not shown.
UniProt Q9Z1E3: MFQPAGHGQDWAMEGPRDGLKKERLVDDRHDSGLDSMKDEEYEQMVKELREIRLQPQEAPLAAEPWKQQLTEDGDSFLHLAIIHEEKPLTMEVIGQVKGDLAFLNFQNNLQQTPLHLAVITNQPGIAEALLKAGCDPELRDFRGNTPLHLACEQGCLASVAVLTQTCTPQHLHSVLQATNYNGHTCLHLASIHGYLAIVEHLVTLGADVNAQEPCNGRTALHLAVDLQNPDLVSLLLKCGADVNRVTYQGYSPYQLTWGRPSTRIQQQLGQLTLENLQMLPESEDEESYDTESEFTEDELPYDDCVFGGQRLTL

Molecular target: T1, Sterol regulatory element binding protein (SREBP) cleavage-activating protein (mouse (endogenous in primary astrocytes)) (UniProt Q6GQT6)
T1 sequence: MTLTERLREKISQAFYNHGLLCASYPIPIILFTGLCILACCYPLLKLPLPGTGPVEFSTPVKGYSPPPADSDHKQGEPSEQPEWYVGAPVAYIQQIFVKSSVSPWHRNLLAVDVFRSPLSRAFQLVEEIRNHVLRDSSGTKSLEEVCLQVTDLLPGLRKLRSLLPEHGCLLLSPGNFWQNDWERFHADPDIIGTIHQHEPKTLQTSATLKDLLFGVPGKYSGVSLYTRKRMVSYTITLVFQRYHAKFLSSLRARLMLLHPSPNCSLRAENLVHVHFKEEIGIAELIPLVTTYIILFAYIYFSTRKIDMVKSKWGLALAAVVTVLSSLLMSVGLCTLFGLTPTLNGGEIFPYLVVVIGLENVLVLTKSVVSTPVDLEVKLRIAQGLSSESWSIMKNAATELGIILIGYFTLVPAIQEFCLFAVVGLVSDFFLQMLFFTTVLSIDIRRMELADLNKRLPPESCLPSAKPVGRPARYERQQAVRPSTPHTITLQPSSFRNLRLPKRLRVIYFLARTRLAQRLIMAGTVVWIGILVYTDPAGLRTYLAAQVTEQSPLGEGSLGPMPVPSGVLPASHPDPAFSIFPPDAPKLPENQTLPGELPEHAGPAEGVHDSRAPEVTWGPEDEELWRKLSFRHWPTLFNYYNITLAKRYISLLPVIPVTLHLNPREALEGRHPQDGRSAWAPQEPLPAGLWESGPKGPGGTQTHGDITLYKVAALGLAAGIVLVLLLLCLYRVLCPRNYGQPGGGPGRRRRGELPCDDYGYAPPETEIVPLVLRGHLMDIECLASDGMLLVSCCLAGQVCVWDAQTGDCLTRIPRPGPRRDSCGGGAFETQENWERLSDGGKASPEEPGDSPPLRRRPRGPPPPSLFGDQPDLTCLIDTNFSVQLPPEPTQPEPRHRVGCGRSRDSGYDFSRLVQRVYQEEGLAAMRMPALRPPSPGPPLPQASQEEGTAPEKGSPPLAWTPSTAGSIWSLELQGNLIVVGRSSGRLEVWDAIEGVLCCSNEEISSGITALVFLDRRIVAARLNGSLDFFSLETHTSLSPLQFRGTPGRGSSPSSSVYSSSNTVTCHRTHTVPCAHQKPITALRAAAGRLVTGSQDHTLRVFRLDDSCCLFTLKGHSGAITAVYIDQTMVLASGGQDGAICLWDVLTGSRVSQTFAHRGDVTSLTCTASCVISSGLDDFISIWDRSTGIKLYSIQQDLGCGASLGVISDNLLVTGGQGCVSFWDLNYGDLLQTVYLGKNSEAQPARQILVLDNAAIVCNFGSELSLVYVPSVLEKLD
Assay: co-IP; endogenous proteins in astrocytes; immunoprecipitation with anti-SCAP, anti-IκBα and anti-NF-κB antibodies, then immunoblotting (n = 3); protocol in the Supplementary Materials and Methods

IκBα, an inhibitory subunit of NF-κB (from UniProt Q9Z1E3 1-314)
binding: binds
